Results are given in words; binding and its absence hold for the method and conditions named. In cells and extracts the contact can be indirect. Some results given as binding are weak or reduced against the parent protein; the word gives no strength. For some assays here: Where a sequence is shown, tags or fusion partners need not be part of it.

By UniProt entry, the sequences of proteins in these tests, tags left out. Residues count along the entry.
UniProt P34741, residues 19-201: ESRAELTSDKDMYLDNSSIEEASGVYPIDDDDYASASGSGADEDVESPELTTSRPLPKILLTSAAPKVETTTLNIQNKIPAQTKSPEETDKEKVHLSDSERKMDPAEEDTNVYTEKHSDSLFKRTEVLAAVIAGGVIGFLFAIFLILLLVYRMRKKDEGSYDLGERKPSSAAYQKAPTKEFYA
UniProt O00560: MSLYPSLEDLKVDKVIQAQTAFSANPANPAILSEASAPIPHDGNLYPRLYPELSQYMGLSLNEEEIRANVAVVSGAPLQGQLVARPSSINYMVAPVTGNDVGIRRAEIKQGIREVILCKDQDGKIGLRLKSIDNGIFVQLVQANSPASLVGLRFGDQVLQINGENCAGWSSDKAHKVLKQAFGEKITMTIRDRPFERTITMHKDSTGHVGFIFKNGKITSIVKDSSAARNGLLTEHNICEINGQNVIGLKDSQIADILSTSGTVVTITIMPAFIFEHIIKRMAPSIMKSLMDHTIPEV
UniProt P35918, residues 20-1345: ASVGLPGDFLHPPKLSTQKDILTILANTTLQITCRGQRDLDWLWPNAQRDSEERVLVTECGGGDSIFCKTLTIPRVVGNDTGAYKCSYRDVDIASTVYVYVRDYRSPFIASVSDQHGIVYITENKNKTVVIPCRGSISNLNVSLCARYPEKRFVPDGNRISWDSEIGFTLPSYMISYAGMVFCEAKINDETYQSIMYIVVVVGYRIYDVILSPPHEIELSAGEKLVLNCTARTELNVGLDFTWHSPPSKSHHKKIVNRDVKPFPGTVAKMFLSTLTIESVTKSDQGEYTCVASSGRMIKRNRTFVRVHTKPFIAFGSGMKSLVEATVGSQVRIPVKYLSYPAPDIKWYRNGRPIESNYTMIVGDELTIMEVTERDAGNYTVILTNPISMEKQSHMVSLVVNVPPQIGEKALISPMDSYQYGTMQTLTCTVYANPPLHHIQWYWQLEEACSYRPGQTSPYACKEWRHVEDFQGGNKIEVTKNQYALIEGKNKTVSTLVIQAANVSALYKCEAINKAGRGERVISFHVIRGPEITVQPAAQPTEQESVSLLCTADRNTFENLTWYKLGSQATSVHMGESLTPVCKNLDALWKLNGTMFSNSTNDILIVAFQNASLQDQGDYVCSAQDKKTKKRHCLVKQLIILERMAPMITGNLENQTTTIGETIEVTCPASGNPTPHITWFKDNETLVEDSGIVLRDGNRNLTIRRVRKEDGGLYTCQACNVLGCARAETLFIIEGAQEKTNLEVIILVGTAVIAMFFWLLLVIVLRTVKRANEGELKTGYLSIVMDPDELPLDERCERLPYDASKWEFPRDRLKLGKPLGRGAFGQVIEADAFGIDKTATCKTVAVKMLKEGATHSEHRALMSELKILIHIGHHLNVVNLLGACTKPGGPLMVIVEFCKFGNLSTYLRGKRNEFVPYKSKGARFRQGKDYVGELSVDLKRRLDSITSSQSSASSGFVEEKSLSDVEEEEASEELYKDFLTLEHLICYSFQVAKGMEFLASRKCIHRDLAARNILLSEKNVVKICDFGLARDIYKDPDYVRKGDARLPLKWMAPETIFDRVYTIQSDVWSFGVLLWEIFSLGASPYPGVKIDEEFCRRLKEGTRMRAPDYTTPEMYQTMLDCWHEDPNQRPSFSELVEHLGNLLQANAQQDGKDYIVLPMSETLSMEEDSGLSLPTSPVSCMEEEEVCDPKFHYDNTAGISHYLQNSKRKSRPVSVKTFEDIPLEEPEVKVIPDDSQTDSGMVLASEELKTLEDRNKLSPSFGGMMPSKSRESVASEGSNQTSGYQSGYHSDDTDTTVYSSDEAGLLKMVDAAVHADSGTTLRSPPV

Assay [1] concerns the target HA-tagged wild-type Syndecan-2 (Ad-Sdc2) (UniProt P34741). The assay can be described thus: co-IP; HUVEC transduced 16 h with adenovirus (MOI 1-2), starved 8 h, stimulated with VEGFA165 (50 ng/ml) 5 min (panels with or without VEGFA165); 1% Triton lysis buffer; anti-HA magnetic beads 2 h at 4 °C; western blot.
The target in assay [2] is T1, HA-tagged wild-type Syndecan-4 (Ad-Sdc4) (UniProt P31431).
T1 sequence: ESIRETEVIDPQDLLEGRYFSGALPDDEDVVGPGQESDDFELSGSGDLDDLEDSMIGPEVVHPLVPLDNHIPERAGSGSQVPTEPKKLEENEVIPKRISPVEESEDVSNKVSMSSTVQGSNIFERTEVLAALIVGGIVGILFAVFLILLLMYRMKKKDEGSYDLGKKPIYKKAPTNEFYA
The assay can be described thus: co-IP; mouse endothelial cell line MS1, VEGFA165 stimulation (Supplementary Figure 6f).

Assay [3] deals with HA-tagged wild-type Syndecan-2 (Ad-Sdc2) (UniProt P34741). The experiment in a line: co-IP; as a1, Sdc2-/- primary mouse ECs, without VEGFA165 stimulation; anti-HA magnetic beads 2 h at 4 °C; western blot. In general terms: Immunoblotting shows a protein as a band on a membrane.
Assay [4] shares this target. The assay is described as above. This is another data set of the same source.
Assay [5] deals with T2, Sdc4^D1/Sdc2^D2 chimera (Sdc2 with its D1 region replaced by Sdc4 D1) (UniProt P31431).
T2 sequence: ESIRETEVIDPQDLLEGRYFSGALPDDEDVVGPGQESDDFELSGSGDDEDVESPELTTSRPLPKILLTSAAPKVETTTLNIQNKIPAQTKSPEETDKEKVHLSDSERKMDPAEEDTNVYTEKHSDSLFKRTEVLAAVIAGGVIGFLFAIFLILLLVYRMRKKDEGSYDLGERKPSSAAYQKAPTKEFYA
The experiment in a line: co-IP; Sdc2-/- primary mouse ECs transduced 16 h with adenovirus (MOI 1-2), starved 8 h, stimulated with VEGFA165 (50 ng/ml) 5 min; 1% Triton lysis buffer; anti-HA magnetic beads 2 h at 4 °C; western blot.

In the case of “syntenin (human, endogenous) (from UniProt O00560 1-298)”, the binding result in assay [1] is listed as “binds”.

In the case of “VEGFR2 (mouse, endogenous) (from UniProt P35918 20-1345) (receptor)”, the binding result is “no binding” in assay [2], “binds weakly” in assay [3], “no binding (condition: without VEGFA165)” in assay [4] and “no binding” in assay [5].

(Values after paper PMC6450910.)
